Some of the results follow.
Experiments:
Experiment in all cases: log2 fold change, soluble protein after heating vs DMSO (PISA); higher = thermal stabilisation; K562 lysate, 10 uM; active = over 0.2 and 3.5 SD of the protein, either way, in both replicates (recomputed)
[1] = compound: C1=CC=C(C=C1)[C@H](COC2=CC3=C(C=C2)NC(=O)N3)NC(=O)C4=CC=CN(C4=O)CC5=CC(=C(C=C5)F)F
Procedure, shortened: (§1)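 Quantification was by TMTpro 16plex LC-MS/MS with equalised channel sums, applied to the supernatant after 21,000xg for 90 min. Samples were crude K562 extract at 1 mg/mL protein in PBS pH 7.4 with 1 mM MgCl2, treated with 10 μM compound for 30 min, heated for 3 min across 48°C-58°C, pooled and brought to 0.5% NP-40 at 4°C. Values are log-two fold changes in thermal stability relative to solvent controls, from duplicates.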

The chains behind the UniProt entries cited, without tags or fusion partners. Where a name states a change or a piece, a line headed by the entry shows the natural chain unless it says otherwise.
UniProt O75528: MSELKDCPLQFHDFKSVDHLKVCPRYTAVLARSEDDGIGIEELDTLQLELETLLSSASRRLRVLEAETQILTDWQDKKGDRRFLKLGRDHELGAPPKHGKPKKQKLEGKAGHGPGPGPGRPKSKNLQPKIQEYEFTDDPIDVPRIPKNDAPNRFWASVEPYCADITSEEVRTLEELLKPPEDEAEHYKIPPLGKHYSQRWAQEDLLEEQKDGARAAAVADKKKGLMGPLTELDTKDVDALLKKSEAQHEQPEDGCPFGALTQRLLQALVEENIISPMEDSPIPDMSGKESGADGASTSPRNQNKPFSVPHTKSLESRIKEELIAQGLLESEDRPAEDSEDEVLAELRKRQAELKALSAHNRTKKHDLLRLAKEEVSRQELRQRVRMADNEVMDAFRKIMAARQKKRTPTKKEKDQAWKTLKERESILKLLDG
UniProt Q9UH65: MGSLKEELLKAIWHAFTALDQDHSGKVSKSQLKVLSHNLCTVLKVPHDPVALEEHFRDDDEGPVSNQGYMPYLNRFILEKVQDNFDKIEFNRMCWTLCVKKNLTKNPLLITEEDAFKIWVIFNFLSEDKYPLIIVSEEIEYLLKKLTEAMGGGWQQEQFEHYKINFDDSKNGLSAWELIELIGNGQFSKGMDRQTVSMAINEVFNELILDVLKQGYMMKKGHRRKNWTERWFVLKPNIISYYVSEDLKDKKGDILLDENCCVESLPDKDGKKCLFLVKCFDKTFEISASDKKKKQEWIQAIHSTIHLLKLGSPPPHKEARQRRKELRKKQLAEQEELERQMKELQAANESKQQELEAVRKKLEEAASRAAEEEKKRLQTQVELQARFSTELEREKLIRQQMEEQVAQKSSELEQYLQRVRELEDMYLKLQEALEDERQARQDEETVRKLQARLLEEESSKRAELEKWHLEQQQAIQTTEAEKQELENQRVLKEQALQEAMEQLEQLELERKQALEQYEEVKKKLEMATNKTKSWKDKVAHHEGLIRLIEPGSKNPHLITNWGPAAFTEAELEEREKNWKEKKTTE
UniProt O43426, whole entry, looked up: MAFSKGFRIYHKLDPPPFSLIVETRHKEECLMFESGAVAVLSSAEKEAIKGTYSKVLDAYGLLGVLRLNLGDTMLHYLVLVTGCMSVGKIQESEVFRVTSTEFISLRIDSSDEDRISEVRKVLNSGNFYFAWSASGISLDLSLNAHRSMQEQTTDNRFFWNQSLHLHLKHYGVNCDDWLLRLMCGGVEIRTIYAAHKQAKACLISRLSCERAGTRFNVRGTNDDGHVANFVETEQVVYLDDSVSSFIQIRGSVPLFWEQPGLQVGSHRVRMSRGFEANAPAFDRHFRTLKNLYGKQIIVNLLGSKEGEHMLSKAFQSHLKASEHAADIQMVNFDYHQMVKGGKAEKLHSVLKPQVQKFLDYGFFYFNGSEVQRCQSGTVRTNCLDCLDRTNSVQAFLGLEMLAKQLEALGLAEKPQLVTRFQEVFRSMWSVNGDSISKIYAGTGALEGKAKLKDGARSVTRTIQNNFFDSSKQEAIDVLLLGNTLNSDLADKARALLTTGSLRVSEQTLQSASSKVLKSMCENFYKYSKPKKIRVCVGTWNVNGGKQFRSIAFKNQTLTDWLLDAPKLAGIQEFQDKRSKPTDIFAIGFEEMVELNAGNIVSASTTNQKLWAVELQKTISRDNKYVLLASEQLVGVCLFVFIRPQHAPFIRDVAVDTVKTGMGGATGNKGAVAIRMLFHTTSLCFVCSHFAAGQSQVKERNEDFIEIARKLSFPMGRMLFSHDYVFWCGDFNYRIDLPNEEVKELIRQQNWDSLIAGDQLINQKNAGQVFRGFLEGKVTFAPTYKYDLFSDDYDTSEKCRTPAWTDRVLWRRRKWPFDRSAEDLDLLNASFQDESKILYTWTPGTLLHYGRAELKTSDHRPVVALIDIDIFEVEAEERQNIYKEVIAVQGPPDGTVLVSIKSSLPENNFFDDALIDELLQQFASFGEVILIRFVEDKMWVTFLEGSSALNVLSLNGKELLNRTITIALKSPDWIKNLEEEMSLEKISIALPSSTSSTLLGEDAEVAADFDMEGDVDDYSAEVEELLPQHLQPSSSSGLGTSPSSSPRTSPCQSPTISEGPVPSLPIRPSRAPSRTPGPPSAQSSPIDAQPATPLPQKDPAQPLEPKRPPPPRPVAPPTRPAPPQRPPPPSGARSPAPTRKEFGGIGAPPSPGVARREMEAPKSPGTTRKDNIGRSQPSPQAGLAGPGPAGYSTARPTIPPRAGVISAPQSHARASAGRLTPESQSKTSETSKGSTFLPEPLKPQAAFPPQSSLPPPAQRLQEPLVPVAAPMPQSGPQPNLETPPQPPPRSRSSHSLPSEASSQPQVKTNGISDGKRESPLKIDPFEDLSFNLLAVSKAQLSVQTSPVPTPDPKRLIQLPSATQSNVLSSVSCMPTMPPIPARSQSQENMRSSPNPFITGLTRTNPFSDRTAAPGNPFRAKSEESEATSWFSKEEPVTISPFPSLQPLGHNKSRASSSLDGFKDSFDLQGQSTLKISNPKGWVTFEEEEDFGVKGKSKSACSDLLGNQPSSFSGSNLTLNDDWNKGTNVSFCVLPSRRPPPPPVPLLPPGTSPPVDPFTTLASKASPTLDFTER
UniProt Q53T94: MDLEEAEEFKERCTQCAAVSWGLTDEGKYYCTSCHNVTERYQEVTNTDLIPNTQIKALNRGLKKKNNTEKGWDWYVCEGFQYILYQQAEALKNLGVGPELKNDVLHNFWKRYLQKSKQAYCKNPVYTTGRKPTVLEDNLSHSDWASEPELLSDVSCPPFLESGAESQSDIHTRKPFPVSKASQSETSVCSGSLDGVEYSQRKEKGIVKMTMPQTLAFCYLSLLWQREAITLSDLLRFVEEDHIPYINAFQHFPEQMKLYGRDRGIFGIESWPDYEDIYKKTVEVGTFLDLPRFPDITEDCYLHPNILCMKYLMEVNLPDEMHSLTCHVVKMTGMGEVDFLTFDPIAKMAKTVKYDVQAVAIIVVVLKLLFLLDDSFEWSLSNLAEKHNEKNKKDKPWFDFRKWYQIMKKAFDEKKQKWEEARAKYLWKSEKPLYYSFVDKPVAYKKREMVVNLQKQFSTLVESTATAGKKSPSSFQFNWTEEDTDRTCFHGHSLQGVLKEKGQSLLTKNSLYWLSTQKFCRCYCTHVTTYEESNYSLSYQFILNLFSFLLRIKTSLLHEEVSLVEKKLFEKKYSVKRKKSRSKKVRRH
UniProt Q8IX01: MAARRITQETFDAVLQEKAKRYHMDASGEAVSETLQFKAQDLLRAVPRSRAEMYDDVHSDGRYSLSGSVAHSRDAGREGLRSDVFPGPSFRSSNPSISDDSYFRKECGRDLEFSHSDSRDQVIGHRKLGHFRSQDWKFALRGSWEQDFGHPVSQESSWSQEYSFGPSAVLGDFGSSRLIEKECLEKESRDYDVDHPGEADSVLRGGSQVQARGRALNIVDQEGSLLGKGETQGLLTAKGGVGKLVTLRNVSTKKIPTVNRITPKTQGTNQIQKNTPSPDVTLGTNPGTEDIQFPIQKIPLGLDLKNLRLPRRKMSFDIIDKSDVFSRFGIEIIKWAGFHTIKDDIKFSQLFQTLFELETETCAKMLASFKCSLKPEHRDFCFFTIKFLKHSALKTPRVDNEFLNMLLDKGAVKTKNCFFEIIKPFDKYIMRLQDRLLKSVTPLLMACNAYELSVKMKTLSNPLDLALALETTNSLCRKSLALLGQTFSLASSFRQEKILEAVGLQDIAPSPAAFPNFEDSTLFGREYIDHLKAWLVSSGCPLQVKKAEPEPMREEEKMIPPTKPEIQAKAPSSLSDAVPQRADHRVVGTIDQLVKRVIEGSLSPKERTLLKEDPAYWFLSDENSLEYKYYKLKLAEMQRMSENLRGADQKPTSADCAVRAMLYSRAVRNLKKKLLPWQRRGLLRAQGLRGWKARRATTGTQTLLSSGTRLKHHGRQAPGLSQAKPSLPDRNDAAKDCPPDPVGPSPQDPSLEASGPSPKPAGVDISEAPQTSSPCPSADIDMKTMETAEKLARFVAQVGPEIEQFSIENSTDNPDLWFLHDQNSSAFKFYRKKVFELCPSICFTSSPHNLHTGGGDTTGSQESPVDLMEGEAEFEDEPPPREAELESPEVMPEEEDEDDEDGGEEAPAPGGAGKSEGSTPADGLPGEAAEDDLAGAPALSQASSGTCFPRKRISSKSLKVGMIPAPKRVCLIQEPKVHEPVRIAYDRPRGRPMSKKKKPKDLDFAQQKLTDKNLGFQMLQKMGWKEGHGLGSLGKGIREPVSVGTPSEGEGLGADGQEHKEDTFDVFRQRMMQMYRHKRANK
UniProt P63165, whole entry, looked up: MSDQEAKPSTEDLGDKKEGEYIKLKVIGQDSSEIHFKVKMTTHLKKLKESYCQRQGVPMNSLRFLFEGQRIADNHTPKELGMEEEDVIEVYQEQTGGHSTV
UniProt O15400: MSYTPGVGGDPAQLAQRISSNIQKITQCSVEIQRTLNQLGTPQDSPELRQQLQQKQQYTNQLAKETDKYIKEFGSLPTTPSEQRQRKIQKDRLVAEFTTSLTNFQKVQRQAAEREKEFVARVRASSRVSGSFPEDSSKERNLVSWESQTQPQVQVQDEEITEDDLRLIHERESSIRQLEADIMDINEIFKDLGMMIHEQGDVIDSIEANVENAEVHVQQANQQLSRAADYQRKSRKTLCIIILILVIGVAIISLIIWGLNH
UniProt Q86TM6, whole entry, looked up: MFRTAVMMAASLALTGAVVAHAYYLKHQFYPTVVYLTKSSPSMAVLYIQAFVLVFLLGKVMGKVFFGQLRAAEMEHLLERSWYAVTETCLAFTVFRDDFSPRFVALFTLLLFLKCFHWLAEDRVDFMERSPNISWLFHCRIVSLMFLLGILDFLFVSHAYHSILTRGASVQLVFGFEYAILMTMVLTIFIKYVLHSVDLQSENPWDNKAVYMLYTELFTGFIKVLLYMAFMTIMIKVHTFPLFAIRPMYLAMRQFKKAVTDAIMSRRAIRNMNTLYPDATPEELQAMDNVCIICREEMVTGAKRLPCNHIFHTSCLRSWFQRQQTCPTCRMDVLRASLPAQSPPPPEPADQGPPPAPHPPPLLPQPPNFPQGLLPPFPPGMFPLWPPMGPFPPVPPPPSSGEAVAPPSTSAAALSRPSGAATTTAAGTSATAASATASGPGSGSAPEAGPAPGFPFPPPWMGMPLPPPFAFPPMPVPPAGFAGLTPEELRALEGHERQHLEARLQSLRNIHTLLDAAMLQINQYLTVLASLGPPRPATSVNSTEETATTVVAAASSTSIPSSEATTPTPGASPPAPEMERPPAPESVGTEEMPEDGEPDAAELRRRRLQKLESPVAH
UniProt Q96SI9: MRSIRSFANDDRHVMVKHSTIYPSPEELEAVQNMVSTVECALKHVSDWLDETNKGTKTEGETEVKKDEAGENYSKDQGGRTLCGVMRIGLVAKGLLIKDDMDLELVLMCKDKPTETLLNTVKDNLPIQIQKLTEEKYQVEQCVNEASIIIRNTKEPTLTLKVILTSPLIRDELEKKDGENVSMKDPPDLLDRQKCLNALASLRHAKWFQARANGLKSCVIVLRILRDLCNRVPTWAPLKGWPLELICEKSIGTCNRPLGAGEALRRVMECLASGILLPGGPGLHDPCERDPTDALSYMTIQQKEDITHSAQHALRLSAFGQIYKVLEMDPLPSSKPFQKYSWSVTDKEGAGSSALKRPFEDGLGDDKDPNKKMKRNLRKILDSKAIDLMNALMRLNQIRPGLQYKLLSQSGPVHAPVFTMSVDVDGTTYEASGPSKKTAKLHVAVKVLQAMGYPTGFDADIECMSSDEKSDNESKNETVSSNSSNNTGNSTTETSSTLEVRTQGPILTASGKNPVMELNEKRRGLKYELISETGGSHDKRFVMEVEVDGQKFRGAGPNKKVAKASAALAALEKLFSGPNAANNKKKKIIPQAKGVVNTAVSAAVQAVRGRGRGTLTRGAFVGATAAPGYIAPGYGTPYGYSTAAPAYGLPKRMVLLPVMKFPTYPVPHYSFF

[2] = compound: CC1=C(SC2=C1C(=N[C@H](C3=NN=C(N32)C)CC(=O)N)C4=CC=C(C=C4)Cl)C
Procedure, shortened: as §1

[3] = compound: CC1=C2C(=CC=C1)N=C(N(C2=O)C3=CC=CC=C3C)CN4C=NC5=C(N=CN=C54)N
Procedure, shortened: as §1

[4] = compound: Cc1sc2c(c1C)C(c1ccc(Cl)cc1)=N[C@@H](CC(=O)OC(C)(C)C)c1nnc(C)n1-2
Procedure, shortened: as §1

[5] = compound: c1ccc([C@@H]2C[C@H]2NC2CCNCC2)cc1
Procedure, shortened: as §1

Measured: log2 fold change

TADA3 (UniProt O75528)
inactive: [1] 0.043 | [2] 0 | [3] 0.087 | [4] -0.015 | [5] -0.098

SWAP70 (UniProt Q9UH65)
inactive: [1] 0.058 | [2] -0.016 | [3] -0.035 | [4] 0.011 | [5] -0.081

SYNJ1 (UniProt O43426)
inactive: [1] 0.022 | [2] 0.06 | [3] 0.034 | [4] 0.011 | [5] -0.015

TAF1B (UniProt Q53T94)
inactive: [1] -0.073 | [2] 0.071 | [3] 0.499 | [4] -0.13 | [5] -0.008

SUGP2 (UniProt Q8IX01)
inactive: [1] -0.224 | [2] 0.022 | [3] 0.156 | [4] 0.011 | [5] 0.143

SUMO1 (UniProt P63165)
inactive: [1] 0.018 | [2] 0.008 | [3] 0.023 | [4] 0.017 | [5] -0.003

STX7 (UniProt O15400)
inactive: [1] 0.032 | [2] 0.008 | [3] -0.019 | [4] 0.006 | [5] -0.008

Taken from the entries so far (2 entries):
SYNJ1 (UniProt O43426)
inactive: [1] 0.022 | [2] 0.06 | [3] 0.034 | [4] 0.011 | [5] -0.015

TAF1B (UniProt Q53T94)
inactive: [1] -0.073 | [2] 0.071 | [3] 0.499 | [4] -0.13 | [5] -0.008

The listing continues:

SYVN1 (UniProt Q86TM6)
inactive: [1] -0.034 | [2] -0.075 | [3] 0.022 | [4] -0.034 | [5] 0.051

STRBP (UniProt Q96SI9)
inactive: [1] 0.003 | [2] -0.012 | [3] -0.007 | [4] 0.038 | [5] 0

Reference: the supplement of paper PMC10849652
